Test results from patent publication US20050042172A1, “Administration of medicaments by vaporisation” (priority 2001, published 2005).
At least one structure is not confirmed: it was looked up by name or label, or the drawing left a doubt.

Test system: TNFá
Experiment: TNFá Antagonism
Conditions: Immunomodulatory/anti-inflammatory activity; no reference given

CCCc1cc(O)c2c(c1)OC(C)(C)[C@@H]1CCC(C)=C[C@@H]21 [THCV, tetrahydrocannabinovarin]
TNFá Antagonism: +
